Protein sequences, listed by entry. Tags and fused reporters are not part of them.
UniProt O14980: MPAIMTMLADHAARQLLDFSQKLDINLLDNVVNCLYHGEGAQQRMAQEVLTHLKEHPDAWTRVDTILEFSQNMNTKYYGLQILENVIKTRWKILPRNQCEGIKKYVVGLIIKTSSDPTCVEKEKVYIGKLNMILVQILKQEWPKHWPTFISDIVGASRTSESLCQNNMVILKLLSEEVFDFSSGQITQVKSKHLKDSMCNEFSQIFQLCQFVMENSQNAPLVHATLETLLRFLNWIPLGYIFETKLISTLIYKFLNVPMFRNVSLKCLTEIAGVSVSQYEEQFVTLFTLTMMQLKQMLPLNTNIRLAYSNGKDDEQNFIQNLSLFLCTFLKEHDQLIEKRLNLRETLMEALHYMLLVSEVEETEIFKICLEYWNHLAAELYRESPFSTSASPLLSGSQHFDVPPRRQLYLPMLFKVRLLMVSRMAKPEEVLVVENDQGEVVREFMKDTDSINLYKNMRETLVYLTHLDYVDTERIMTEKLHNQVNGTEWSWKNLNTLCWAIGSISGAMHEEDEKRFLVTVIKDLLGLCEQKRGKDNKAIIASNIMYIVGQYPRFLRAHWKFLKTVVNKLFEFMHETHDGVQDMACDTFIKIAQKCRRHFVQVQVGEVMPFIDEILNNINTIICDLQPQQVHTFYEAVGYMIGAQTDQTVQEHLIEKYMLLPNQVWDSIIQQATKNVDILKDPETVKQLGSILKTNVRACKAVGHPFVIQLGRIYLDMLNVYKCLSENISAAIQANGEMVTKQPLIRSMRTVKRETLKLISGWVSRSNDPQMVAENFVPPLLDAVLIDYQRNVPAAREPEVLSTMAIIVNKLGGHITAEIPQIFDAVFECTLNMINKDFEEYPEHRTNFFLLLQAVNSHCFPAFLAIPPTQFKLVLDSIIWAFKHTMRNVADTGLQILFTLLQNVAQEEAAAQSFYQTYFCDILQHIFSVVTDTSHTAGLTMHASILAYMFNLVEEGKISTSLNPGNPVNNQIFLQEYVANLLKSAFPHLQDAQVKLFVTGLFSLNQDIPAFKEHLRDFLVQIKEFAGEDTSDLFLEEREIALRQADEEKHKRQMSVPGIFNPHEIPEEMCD
UniProt Q12894: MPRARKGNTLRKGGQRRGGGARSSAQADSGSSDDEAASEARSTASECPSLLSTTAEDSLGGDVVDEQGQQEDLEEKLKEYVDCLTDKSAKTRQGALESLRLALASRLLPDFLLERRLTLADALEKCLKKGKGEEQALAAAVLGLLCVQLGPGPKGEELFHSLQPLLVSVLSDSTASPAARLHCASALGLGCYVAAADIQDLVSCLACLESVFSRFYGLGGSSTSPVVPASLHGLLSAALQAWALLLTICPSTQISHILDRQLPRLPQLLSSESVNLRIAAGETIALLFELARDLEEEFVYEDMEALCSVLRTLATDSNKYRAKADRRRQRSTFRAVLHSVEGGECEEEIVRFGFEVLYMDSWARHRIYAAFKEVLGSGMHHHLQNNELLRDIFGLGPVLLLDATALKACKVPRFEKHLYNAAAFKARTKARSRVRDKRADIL
UniProt Q71RC2: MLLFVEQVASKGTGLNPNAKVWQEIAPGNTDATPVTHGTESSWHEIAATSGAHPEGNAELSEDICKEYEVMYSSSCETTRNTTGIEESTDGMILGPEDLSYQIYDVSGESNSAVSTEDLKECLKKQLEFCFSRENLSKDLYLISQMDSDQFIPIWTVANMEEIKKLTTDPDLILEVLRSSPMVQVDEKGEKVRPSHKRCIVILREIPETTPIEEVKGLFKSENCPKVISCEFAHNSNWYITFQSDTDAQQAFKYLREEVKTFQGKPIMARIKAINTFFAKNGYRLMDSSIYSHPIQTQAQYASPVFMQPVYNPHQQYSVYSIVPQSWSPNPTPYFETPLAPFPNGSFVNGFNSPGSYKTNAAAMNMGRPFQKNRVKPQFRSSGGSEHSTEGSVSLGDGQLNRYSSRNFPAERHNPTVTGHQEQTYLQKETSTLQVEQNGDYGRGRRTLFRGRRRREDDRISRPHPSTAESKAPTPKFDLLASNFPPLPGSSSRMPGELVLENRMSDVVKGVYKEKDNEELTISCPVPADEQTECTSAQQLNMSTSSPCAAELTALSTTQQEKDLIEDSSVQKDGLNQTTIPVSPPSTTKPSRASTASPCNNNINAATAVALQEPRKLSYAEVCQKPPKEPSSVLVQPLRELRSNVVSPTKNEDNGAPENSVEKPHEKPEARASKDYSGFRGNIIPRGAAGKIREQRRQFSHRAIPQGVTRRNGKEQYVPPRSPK

According to paper PMC13128273:

target: T1, HERC5-3×FLAG (wild type) (human) (UniProt Q9UII4); assay: affinity purification with mass spectrometry; HERC5-3×FLAG WT or C994A precipitated with anti-FLAG M2 from transfected HEK293T lysate (Lysis150 buffer), eluted with 3×FLAG peptide, SDS–PAGE, in-gel trypsin digestion, LC–MS/MS with label-free quantification; HERC5-3×MYC as negative control
T1 sequence: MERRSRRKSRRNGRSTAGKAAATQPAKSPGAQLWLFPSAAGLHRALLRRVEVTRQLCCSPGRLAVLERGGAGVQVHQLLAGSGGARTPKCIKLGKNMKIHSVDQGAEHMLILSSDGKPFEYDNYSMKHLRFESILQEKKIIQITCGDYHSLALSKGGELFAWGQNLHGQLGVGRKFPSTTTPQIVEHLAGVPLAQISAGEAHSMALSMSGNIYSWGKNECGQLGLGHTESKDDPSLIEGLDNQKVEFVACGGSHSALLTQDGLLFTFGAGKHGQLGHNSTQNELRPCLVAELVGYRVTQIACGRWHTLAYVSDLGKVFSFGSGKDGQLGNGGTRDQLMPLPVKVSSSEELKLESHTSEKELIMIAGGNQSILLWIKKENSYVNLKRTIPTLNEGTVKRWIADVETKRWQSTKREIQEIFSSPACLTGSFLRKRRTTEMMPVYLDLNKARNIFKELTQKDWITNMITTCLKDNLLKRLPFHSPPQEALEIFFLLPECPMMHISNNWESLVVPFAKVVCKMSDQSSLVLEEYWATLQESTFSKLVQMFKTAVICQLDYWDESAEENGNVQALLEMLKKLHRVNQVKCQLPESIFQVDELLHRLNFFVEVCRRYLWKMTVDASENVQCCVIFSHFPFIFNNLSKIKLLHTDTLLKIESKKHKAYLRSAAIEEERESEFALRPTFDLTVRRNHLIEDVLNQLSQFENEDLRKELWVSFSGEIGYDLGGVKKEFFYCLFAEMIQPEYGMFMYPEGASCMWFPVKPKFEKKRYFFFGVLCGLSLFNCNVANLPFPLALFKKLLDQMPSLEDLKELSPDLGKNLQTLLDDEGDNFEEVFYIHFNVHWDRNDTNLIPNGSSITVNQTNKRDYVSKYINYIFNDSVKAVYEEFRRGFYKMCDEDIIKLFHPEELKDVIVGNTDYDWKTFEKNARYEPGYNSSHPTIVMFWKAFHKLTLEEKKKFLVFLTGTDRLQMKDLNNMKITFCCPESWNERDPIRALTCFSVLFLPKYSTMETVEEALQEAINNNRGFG

binding	Substance
no binding	CRM1 (from UniProt O14980 1-1071)
binds	IFRD2 (from UniProt Q12894 1-442)
binds	LARP4 (from UniProt Q71RC2 1-724)

Results are given in words; binding and its absence hold for the method and conditions named. In cells and extracts the contact can be indirect. Here binding means that the protein was enriched with, or labelled near, the bait; the list need not be complete. No binding means not detected with the bait. Where a sequence is shown, tags or fusion partners need not be part of it.
